These are yes or no findings as the source states them, for the method shown. For some of these results: In cells and extracts the contact can be indirect. Some results given as binding are weak or reduced against the parent protein; the word gives no strength.

Chains of the proteins cited; added tags and fusions are not shown. Residues count along the entry.
UniProt Q92736, residues 1-906: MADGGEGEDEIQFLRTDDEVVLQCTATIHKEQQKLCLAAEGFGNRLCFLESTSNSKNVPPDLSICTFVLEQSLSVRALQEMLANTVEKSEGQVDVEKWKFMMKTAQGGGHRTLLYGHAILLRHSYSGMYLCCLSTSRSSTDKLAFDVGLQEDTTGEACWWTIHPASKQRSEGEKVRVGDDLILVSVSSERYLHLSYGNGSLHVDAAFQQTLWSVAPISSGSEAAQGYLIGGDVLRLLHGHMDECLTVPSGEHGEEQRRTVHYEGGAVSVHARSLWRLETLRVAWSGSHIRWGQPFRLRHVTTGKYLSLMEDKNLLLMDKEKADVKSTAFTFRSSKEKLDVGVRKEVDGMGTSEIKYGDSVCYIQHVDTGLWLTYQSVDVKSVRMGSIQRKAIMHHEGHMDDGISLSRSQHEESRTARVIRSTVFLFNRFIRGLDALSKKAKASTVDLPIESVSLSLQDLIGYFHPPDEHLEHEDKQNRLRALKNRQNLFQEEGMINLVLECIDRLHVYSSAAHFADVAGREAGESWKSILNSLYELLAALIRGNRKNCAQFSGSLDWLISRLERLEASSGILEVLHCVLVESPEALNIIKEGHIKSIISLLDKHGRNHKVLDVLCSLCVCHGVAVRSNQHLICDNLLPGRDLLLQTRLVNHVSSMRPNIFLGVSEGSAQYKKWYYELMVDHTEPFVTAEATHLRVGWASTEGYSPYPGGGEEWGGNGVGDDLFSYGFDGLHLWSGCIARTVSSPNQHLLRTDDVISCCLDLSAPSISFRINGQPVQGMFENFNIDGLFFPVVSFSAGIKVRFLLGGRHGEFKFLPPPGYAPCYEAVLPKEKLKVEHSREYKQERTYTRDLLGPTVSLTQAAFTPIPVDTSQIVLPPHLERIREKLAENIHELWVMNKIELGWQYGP

The target in assay [1] is RyR2 N-terminal fragment (residues 1–906), yeast two-hybrid fusions BT4LR2 / AD4LR2 (human) (UniProt Q92736). The assay is described as follows: two-hybrid; yeast Y190 co-transformed with GAL4 DNA-BD (BT4LR1/2/3) and GAL4 AD (AD4LR1/2/3) fusions; quantitative liquid β-galactosidase assays (n=5), normalized against the positive control pair pVA3+pTD1.
Assay [2] concerns the target RyR1 N-terminal fragment (residues 1–915), yeast two-hybrid fusions BT4LR1 / AD4LR1 (rabbit) (UniProt P11716). The description is as above.
In assay [3] the target is RyR3 N-terminal fragment (residues 1–911), yeast two-hybrid fusions BT4LR3 / AD4LR3 (rabbit) (UniProt Q9TS33). Described as above.
The target in assay [4] is HA-tagged RyR2 N-terminus (residues 1–906), AD4LR2, in HEK-293 cells (human) (UniProt Q92736). The assay is described as follows: co-IP; HEK-293 cells co-expressing HA-AD4LR2 and c-Myc-BT4LR1/3; anti-HA immunoprecipitation from CHAPS-solubilized lysates pre-treated with or without 10 mM DTT; anti-c-Myc Western blot. For orientation: A western blot detects proteins with antibodies after separation by electrophoresis.

In the case of “RyR2 N-terminal fragment (residues 1–906), yeast two-hybrid fusions BT4LR2 / AD4LR2 (from UniProt Q92736 1-906) (domain or fragment)”, the binding result in assay [1] is “binds”.
Regarding “RyR3 N-terminal fragment (residues 1–911), yeast two-hybrid fusions BT4LR3 / AD4LR3 (from UniProt Q9TS33 1-911) (domain or fragment)”, the binding result in assay [2], in assay [1] and in assay [3] was “binds weakly” in each case.
As for “RyR1 N-terminal fragment (residues 1–915), yeast two-hybrid fusions BT4LR1 / AD4LR1 (from UniProt P11716 1-915) (domain or fragment)”, in assay [1], the binding entry was “binds”.

B1: c-Myc-tagged RyR3 N-terminal fragment (residues 1–911), BT4LR3, in HEK-293 cells (domain or fragment, rabbit, UniProt Q9TS33 1-911, looked up)
chain: MAEGGEGGEDEIQFLRTEDEVVLQCIATVHKEQRKFCLAAEGLGNRLCFLEPTSEAKFIPPDLCVCNFVLEQSLSVRALQEMLANTGENGGEGAAQGGGHRTLLYGHAILLRHSFSGMYLTCLTTSRSQTDKLAFDVGLREHATGEACWWTIHPASKQRSEGEKVRIGDDLILVSVSSERYLHLSISNGNIQVDASFMQTLWNVHPTCSGSSIEEGYLLGGHVVRLFHGHDECLTIPSTDQNDSQHRRIFYEAGGAGTRARSLWRVEPLRISWSGSNIRWGQAFRLRHLTTGHYLALTEDQGLLLQDRGKADTKSTAFSFRPSKETKEKLDSSHKRDIEGMGVPEIKYGDSVCFVQHIASGLWVTYKAQDAKTSRLGPLKRKVILHQEGHMDDGLTLQRCQREESQAARIIRNTTALFSQFVSGNNRTAAPVTLPIEEVLQTLHDLIAYFQPPEEEMQHEDKQNKLRSLKNRQNLFKEEGMLALVLNCIDRLNIYNSVAHFAGIAREESGMAWKEVLSLLYKLLAALIRGNRNTCAQFSNNLDWLISKLDRLESSSGILEVLHCILIESPEALNLIAEGHIKSIISLLDKHGRNHKVLDVLCSLCLCNGVAVRANQNLICDNLLPRRNLLLQTRLINDVTSIRPNIFLGVAEGSAQYKKWYFELIIDQVDPFLTAEPTHLRVGWASSSGYAPYPGGGEGWGGNGVGDDLYSYGFDGLHLWSGRIPRAVASINQHLLKSDDVVSCCLDLGVPSISFRINGQPVQGMFENFNTDGLFFPVMSFSAGVKVRFLMGGRHGEFKFLPPSGYAPCYEALLPKEKMRLEPVKEYKRDAEGVRDLLGTTQFLSQASFIPCPIDTSQVVLPPHLEKIRDRLAENIHELWGMNKIELGWTFGKMRDDNKRQHPCLVEFSKL
notes: ryanodine receptor 3 (RyR3), rabbit, residues 1-911; also called c-Myc–BT4LR3
For B1, the binding entry in assay [4] is “binds”.

B2: c-Myc-tagged RyR1 N-terminal fragment (residues 1–915), BT4LR1, in HEK-293 cells (domain or fragment, rabbit, UniProt P11716 1-915, looked up)
chain: MGDGGEGEDEVQFLRTDDEVVLQCSATVLKEQLKLCLAAEGFGNRLCFLEPTSNAQNVPPDLAICCFTLEQSLSVRALQEMLANTVEAGVESSQGGGHRTLLYGHAILLRHAHSRMYLSCLTTSRSMTDKLAFDVGLQEDATGEACWWTMHPASKQRSEGEKVRVGDDLILVSVSSERYLHLSTASGELQVDASFMQTLWNMNPICSCCEEGYVTGGHVLRLFHGHMDECLTISAADSDDQRRLVYYEGGAVCTHARSLWRLEPLRISWSGSHLRWGQPLRIRHVTTGRYLALTEDQGLVVVDACKAHTKATSFCFRVSKEKLDTAPKRDVEGMGPPEIKYGESLCFVQHVASGLWLTYAAPDPKALRLGVLKKKAILHQEGHMDDALFLTRCQQEESQAARMIHSTAGLYNQFIKGLDSFSGKPRGSGPPAGPALPIEAVILSLQDLIGYFEPPSEELQHEEKQSKLRSLRNRQSLFQEEGMLSLVLNCIDRLNVYTTAAHFAEYAGEEAAESWKEIVNLLYELLASLIRGNRANCALFSTNLDWVVSKLDRLEASSGILEVLYCVLIESPEVLNIIQENHIKSIISLLDKHGRNHKVLDVLCSLCVCNGVAVRSNQDLITENLLPGRELLLQTNLINYVTSIRPNIFVGRAEGSTQYGKWYFEVMVDEVVPFLTAQATHLRVGWALTEGYSPYPGGGEGWGGNGVGDDLYSYGFDGLHLWTGHVARPVTSPGQHLLAPEDVVSCCLDLSVPSISFRINGCPVQGVFEAFNLDGLFFPVVSFSAGVKVRFLLGGRHGEFKFLPPPGYAPCHEAVLPRERLRLEPIKEYRREGPRGPHLVGPSRCLSHTDFVPCPVDTVQIVLPPHLERIREKLAENIHELWALTRIEQGWTYGPVRDDNKRLHPCLVNFHSLPE
notes: ryanodine receptor 1 (RyR1), rabbit, residues 1-915; also called c-Myc–BT4LR1
Turning to B2, the binding entry in assay [4] is on record as “binds”.

For the origin of these results see PMC3969220, “N-terminus oligomerization is conserved in intracellular calcium release channels” (Biochemical Journal, 2014).
